The text below walks through data of patent US20110144302A1 (Affibody, published 2011).

Numbering of substitutions follows the chain as printed. In names and notes the source's numbering stands.

For this assay, the target named is palivizumab. The assay is described as follows: SPR (Biacore 2000), palivizumab immobilized on CM5 chip, 1:1 Langmuir fit, estimate.

B1: Z02726 (designed binder)
chain: GSSLQVDAKFWKEQQHAFYEILHLPNLTEDQRQAFIASLRKDPSQSARLLAGAKKLDDAQAPKVD
notes: Z variant, expressed as a monomer in E. coli; clone from selection round 5
By Kd is commonly meant the constant that tells how readily two partners part at equilibrium. The term koff denotes the first-order rate constant of dissociation. By kon is commonly meant a measure of how fast the partners come together. B1: the Kd was 18 nM, the koff is 0.045 s⁻¹ and the kon is 2.6e+06 M⁻¹ s⁻¹.

B2: Z02742 (designed binder)
chain: B1 chain with D30G, R32K, Q33H, A37R, S38A, K41G, G52R
notes: as for B1
Regarding B2, the Kd is 5 nM, the koff is 0.043 s⁻¹ and the kon is 9.6e+06 M⁻¹ s⁻¹.
